Experiments:
[1] = Summary of desirable properties of Av3b mutants relative to Av3b; parameters: key: Y = yield; A = activity; S = general stability; D = resistance to proteolytic degradation in fermentation media (fermentation beer); F = similar protein folding relative to Av3b (as determined via circular dichroism); T = thermostable at 54° C.; P = stable under diverse pH conditions; G = stable in insect gut extract
[2] = as above; parameters: key: Y = yield; A = activity; S = general stability; D = resistance to proteolytic degradation in fermentation beer; F = similar protein folding relative to Av3b (as determined via circular dichroism); T = thermostable at 54° C.; P = stable under diverse pH conditions; G = stable in insect gut extract; conditions: Table 12: all mutants evaluated
[3] = Table 1: at least one novel property relative to Av3b
[4] = Table 12: all mutants evaluated, relative to Av3b

| Sequence | Desirable property [1, 3] | Desirable property [1, 4] | Desirable property [2] |
| --- | --- | --- | --- |
| ESCCPCYWGGCPWGQNCYPEGCSGPK (Av3bM37; VARIANT (1)..(26) Recombinant variant of Anemonia viridis Av3 peptide) | Y | Y | – |
| HSCCPCYWGGCPWGQNCYPEGCSGPK (Av3bM28; VARIANT (1)..(26) Recombinant variant of Anemonia viridis Av3 peptide) | Y | Y | – |
| ISCCPCYWGGCPWGQNCYPEGCSGPK (Av3bM39; VARIANT (1)..(26) Recombinant variant of Anemonia viridis Av3 peptide) | A | A | – |
| KSCCPCYWAGCPWGQNCYPEGCSGPK (Av3bM27; VARIANT (1)..(26) Recombinant variant of Anemonia viridis Av3 peptide) | A | A | – |
| KSCCPCYWGGCPWGQNCYPEGCGGPK (Av3bM85; VARIANT (1)..(26) Recombinant variant of Anemonia viridis Av3 peptide) | A | A | – |
| KSCCPCYWGGCPWGQNCYPEGCSG (Av3bM164; VARIANT (1)..(24) Recombinant variant of Anemonia viridis Av3 peptide) | A | A | – |
| KSCCPCYWGGCPWGQNCYPEGCSGP (Av3bM163; VARIANT (1)..(25) Recombinant variant of Anemonia viridis Av3 peptide) | A | A | – |
| KSCCPCYWGGCPWGQNCYPEGCSGPA (Av3bM97; VARIANT (1)..(26) Recombinant variant of Anemonia viridis Av3 peptide) | A | A | – |
| KSCCPCYWGGCPWGQNCYPEGCSGPKG [Av3bM148] | D | – | D |
| KSCCPCYWGGCPWGQNCYPEGCSGPKVI [Av3bM168] | A | A | – |
| KSCCPCYWGGCPWGQNCYPEGCSGPR (Av3bM98; VARIANT (1)..(26) Recombinant variant of Anemonia viridis Av3 peptide) | D | – | D |
| KSCCPCYWGGCPWGQNCYPEGCSGPT (Av3bM111; VARIANT (1)..(26) Recombinant variant of Anemonia viridis Av3 peptide) | A | A | – |
| KSCCPCYWGGCPWGQNCYPEGCTGPK (Av3bM93; VARIANT (1)..(26) Recombinant variant of Anemonia viridis Av3 peptide) | A | A | – |
| KSCCPCYWGGCPWGQNCYPEGCVGPK (Av3bM96; VARIANT (1)..(26) Recombinant variant of Anemonia viridis Av3 peptide) | A | A | – |
| KSCCPCYWPNCPWGQNCYPEGCSGPK (Av3bM5; VARIANT (1)..(26) Recombinant variant of Anemonia viridis Av3 peptide) | Y | Y | – |
| LSCCPCYWGGCPWGQNCYPEGCSGPK (Av3bM40; VARIANT (1)..(26) Recombinant variant of Anemonia viridis Av3 peptide) | A | A | – |
| NSCCPCYWGGCPWGQNCYPEGCSGPK (Av3bM35; VARIANT (1)..(26) Recombinant variant of Anemonia viridis Av3 peptide) | Y | Y | – |
| QSCCPCYWGGCPWGQNCYPEGCSGPH (Av3bM30; VARIANT (1)..(26) Recombinant variant of Anemonia viridis Av3 peptide) | Y | Y | – |
| QSCCPCYWGGCPWGQNCYPEGCSGPK (Av3bM29; VARIANT (1)..(26) Recombinant variant of Anemonia viridis Av3 peptide) | Y | Y | – |
| SSCCPCYWGGCPWGQNCYPEGCSGPK (Av3bM32; VARIANT (1)..(26) Recombinant variant of Anemonia viridis Av3 peptide) | Y | Y | – |
| SSCCPCYWGGCPWGQNCYPEGCSGPT (Av3bM33; VARIANT (1)..(26) Recombinant variant of Anemonia viridis Av3 peptide) | Y | Y | – |
| TSCCPCYWGGCPWGQNCYPEGCSGPK (Av3bM31; VARIANT (1)..(26) Recombinant variant of Anemonia viridis Av3 peptide) | Y | Y | – |
| VSCCPCYWGGCPWGQNCYPEGCSGPK (Av3bM46; VARIANT (1)..(26) Recombinant variant of Anemonia viridis Av3 peptide) | A | A | – |
